Test results from the supplement of paper PMC4635364.
Structures can show the parent of a compound that is named as a salt. The list shows a part of the results. This data set is noisy: repeats of one test often differ as much as different tests do.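 ReNCell VM, a human fetal ventral-midbrain neural progenitor line, was differentiated without mitogens. Blinded raters scored images stained for doublecortin (early neurons) or tyrosine hydroxylase (dopaminergic neurons) against untreated wells (0 = no change). Scores were averaged across repeats and both raters, and compounds averaging 2 or more were selected as hits for retesting.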

Legend:
ReNCell VM [1] = assay: neuronal differentiation score (DCX+ cell fraction vs untreated, manual image score) (score (-3 to 3)); higher = more neuronal differentiation; settings: 2 uM, 2 weeks
ReNCell VM [2] = assay: dopaminergic neuron differentiation score (TH+ cell fraction vs untreated, manual image score) (score (0 to 3)); higher = more TH+ dopaminergic neuron differentiation; settings: 2 uM, 4 weeks, BDNF 10 ng/ml + GDNF 10 ng/ml

**Q.** For `Cn1c(=O)c2[nH]c(-c3ccc(S(=O)(=O)O)cc3)nc2n(C)c1=O` [8-(p-Sulfophenyl)theophylline], which neuronal differentiation score (ReNCell VM [1]; library: LOPAC) is on record?
**A.** inactive: 0

**Q.** And the “dopaminergic neuron differentiation score” value (ReNCell VM [2]; library: LOPAC)?
**A.** inactive: 0

**Q.** How did the neuronal differentiation score (ReNCell VM [1]; library: Tocriscreen) turn out when `COc1ccc([C@@H]2CNC(=O)C2)cc1OC1CCCC1` [(R)-(-)-Rolipram] was run?
**A.** inactive: 0

**Q.** What about the “dopaminergic neuron differentiation score” value (ReNCell VM [2]; library: Tocriscreen) of the same molecule?
**A.** inactive: 0

**Q.** What does the source list for `Cc1cc(O)c2c(c1)C(=O)c1cccc(O)c1C2=O`?
**A.** neuronal differentiation score (ReNCell VM [1]; library: Spectrum): inactive: 0; dopaminergic neuron differentiation score (ReNCell VM [2]; library: Spectrum): inactive: 0

**Q.** Which results are given for `CC(=O)c1ccc2c(c1)N(CCCN1CCN(CCO)CC1)c1ccccc1S2`?
**A.** neuronal differentiation score (ReNCell VM [1]; library: Spectrum): inactive: 0; dopaminergic neuron differentiation score (ReNCell VM [2]; library: Spectrum): inactive: 0

**Q.** Which results are given for `N[C@@H](C(=O)O)c1ccc(O)c(C(=O)O)c1` [(R)-3-Carboxy-4-hydroxyphenylglycine]?
**A.** neuronal differentiation score (ReNCell VM [1]; library: Tocriscreen): inactive: 0; dopaminergic neuron differentiation score (ReNCell VM [2]; library: Tocriscreen): inactive: 0

**Q.** How did the neuronal differentiation score (ReNCell VM [1]; library: Prestwick) turn out when `Cc1ncc(CO)c(CO)c1O` [Pyridoxine hydrochloride] was run?
**A.** inactive: 0

**Q.** What about the “dopaminergic neuron differentiation score” value (ReNCell VM [2]; library: Prestwick) of the same molecule?
**A.** inactive: 0

**Q.** Which results are given for `CCCCCC(=O)Cc1cc(O)cc(O)c1C(=O)Oc1cc(CC(=O)CCCCC)c(C(=O)O)c(OC)c1`?
**A.** neuronal differentiation score (ReNCell VM [1]; library: Spectrum): inactive: 0; dopaminergic neuron differentiation score (ReNCell VM [2]; library: Spectrum): inactive: 0

**Q.** Which neuronal differentiation score (ReNCell VM [1]; library: Prestwick) does the source give for `CC(=O)OCC(=O)[C@@]1(O)[C@H](C)C[C@H]2[C@@H]3CCC4=CC(=O)C=C[C@]4(C)[C@@]3(F)[C@@H](O)C[C@@]21C` [Dexamethasone acetate] here?
**A.** inactive: 0

**Q.** And the “dopaminergic neuron differentiation score” value (ReNCell VM [2]; library: Prestwick)?
**A.** inactive: 0

**Q.** `CC(=O)O[C@@H]1C[C@H]2C(C)(C)C(=O)CC[C@]2(C)[C@H]2CC[C@@]3(C)[C@H](c4ccoc4)OC(=O)[C@H]4O[C@]43[C@@]21C` was tested. Which neuronal differentiation score (ReNCell VM [1]; library: Spectrum) did it give?
**A.** inactive: 0

**Q.** And the “dopaminergic neuron differentiation score” value (ReNCell VM [2]; library: Spectrum)?
**A.** inactive: 0

**Q.** For `C=CCc1ccc(O)c(-c2ccc(O)c(CC=C)c2)c1` [Honokiol], which neuronal differentiation score (ReNCell VM [1]; library: Phytochemical) is on record?
**A.** inactive: 0

**Q.** And the “dopaminergic neuron differentiation score” value (ReNCell VM [2]; library: Phytochemical)?
**A.** inactive: 0

**Q.** Which neuronal differentiation score (ReNCell VM [1]; library: Prestwick) does the source give for `CC(=O)NS(=O)(=O)c1ccc(N)cc1` [Sulfacetamide sodic hydrate] here?
**A.** inactive: 0

**Q.** What about the “dopaminergic neuron differentiation score” value (ReNCell VM [2]; library: Prestwick) of the same molecule?
**A.** inactive: 0

**Q.** For `CC(C)(O/N=C(\C(=O)N[C@@H]1C(=O)N2C(C(=O)[O-])=C(C[n+]3ccccc3)CS[C@H]12)c1csc(N)n1)C(=O)O`, which neuronal differentiation score (ReNCell VM [1]; library: Spectrum) is on record?
**A.** inactive: 0

**Q.** What about the “dopaminergic neuron differentiation score” value (ReNCell VM [2]; library: Spectrum) of the same molecule?
**A.** inactive: 0

**Q.** Which results are given for `Fc1ccc([C@@H]2CCNC[C@H]2COc2ccc3c(c2)OCO3)cc1`?
**A.** neuronal differentiation score (ReNCell VM [1]; library: Spectrum): inactive: 0; dopaminergic neuron differentiation score (ReNCell VM [2]; library: Spectrum): inactive: 0

**Q.** What does the source list for `C#C[C@]1(O)CC[C@H]2[C@@H]3[C@H](C)CC4=C(CCC(=O)C4)[C@H]3CC[C@@]21C`?
**A.** neuronal differentiation score (ReNCell VM [1]; library: Spectrum): inactive: 0; dopaminergic neuron differentiation score (ReNCell VM [2]; library: Spectrum): inactive: 0

**Q.** For `Cc1cc2nc3c(=O)[nH]c(=O)nc-3n(C)c2cc1C=O`, which neuronal differentiation score (ReNCell VM [1]; library: Tocriscreen) is on record?
**A.** inactive: 0

**Q.** And the “dopaminergic neuron differentiation score” value (ReNCell VM [2]; library: Tocriscreen)?
**A.** inactive: 0

**Q.** With `CN1CCC(=C2c3ccccc3Sc3ccccc32)CC1` [Pimethixene maleate] as the molecule, how does the neuronal differentiation score (ReNCell VM [1]; library: Prestwick) read?
**A.** inactive: 0

**Q.** What about the “dopaminergic neuron differentiation score” value (ReNCell VM [2]; library: Prestwick) of the same molecule?
**A.** inactive: 0

**Q.** `O=C(O)CC1NC(=O)C(Cc2ccccc2)NC1=O` (stereo not drawn) [5-benzyl-3,6-dioxo-2-piperazineacetic acid] was tested. Which neuronal differentiation score (ReNCell VM [1]; library: Natural) did it give?
**A.** inactive: 0

**Q.** And the “dopaminergic neuron differentiation score” value (ReNCell VM [2]; library: Natural)?
**A.** inactive: 0

**Q.** What does the source list for `CC(C)CCCC(C)N` (stereo not drawn)?
**A.** neuronal differentiation score (ReNCell VM [1]; library: Spectrum): inactive: 0; dopaminergic neuron differentiation score (ReNCell VM [2]; library: Spectrum): inactive: 0

**Q.** For `CCOc1cccc(C(=O)c2ccc(O)c(O)c2O)c1`, which neuronal differentiation score (ReNCell VM [1]; library: Spectrum) is on record?
**A.** inactive: 0

**Q.** And the “dopaminergic neuron differentiation score” value (ReNCell VM [2]; library: Spectrum)?
**A.** inactive: 0

**Q.** Which neuronal differentiation score (ReNCell VM [1]; library: Tocriscreen) does the source give for `N#C/C(=C\c1ccc(O)c(O)c1)C(=O)NCc1ccccc1` here?
**A.** inactive: 0

**Q.** And the “dopaminergic neuron differentiation score” value (ReNCell VM [2]; library: Tocriscreen)?
**A.** active: 3

**Q.** With `Cc1oc(=O)oc1CN1CCN(c2cc3c(cc2F)c(=O)c(C(=O)O)c2n3C(C)S2)CC1` (stereo not drawn) as the molecule, how does the neuronal differentiation score (ReNCell VM [1]; library: Spectrum) read?
**A.** inactive: 0

**Q.** What about the “dopaminergic neuron differentiation score” value (ReNCell VM [2]; library: Spectrum) of the same molecule?
**A.** inactive: 0

**Q.** How did the neuronal differentiation score (ReNCell VM [1]; library: Spectrum) turn out when `Cc1ncc(CO)c(CO)c1O` was run?
**A.** inactive: 0

**Q.** And the “dopaminergic neuron differentiation score” value (ReNCell VM [2]; library: Spectrum)?
**A.** inactive: 0

**Q.** `COc1ccc2cc([C@H](C)C(=O)O)ccc2c1` [Naproxen sodium] was tested. Which neuronal differentiation score (ReNCell VM [1]; library: Tocriscreen) did it give?
**A.** inactive: 0

**Q.** What about the “dopaminergic neuron differentiation score” value (ReNCell VM [2]; library: Tocriscreen) of the same molecule?
**A.** inactive: 0

**Q.** For `C[C@@H](O[C@H]1OCCN(Cc2n[nH]c(=O)[nH]2)[C@H]1c1ccc(F)cc1)c1cc(C(F)(F)F)cc(C(F)(F)F)c1` [Aprepitant], which neuronal differentiation score (ReNCell VM [1]; library: Prestwick) is on record?
**A.** inactive: 0

**Q.** And the “dopaminergic neuron differentiation score” value (ReNCell VM [2]; library: Prestwick)?
**A.** inactive: 0

**Q.** How did the neuronal differentiation score (ReNCell VM [1]; library: Spectrum) turn out when `CCCCC1(COC(=O)CCC(=O)O)C(=O)N(c2ccccc2)N(c2ccccc2)C1=O` was run?
**A.** inactive: 0

**Q.** And the “dopaminergic neuron differentiation score” value (ReNCell VM [2]; library: Spectrum)?
**A.** inactive: 0

**Q.** `Nc1ccc(S(=O)(=O)Nc2nccs2)cc1` [Sulfathiazole] was tested. Which neuronal differentiation score (ReNCell VM [1]; library: Prestwick) did it give?
**A.** inactive: 0

**Q.** And the “dopaminergic neuron differentiation score” value (ReNCell VM [2]; library: Prestwick)?
**A.** inactive: 0

**Q.** `O=C(O)c1ccccc1-c1c2cc(I)c(=O)c(I)c-2oc2c(I)c(O)c(I)cc12` was tested. Which neuronal differentiation score (ReNCell VM [1]; library: Spectrum) did it give?
**A.** inactive: 0

**Q.** And the “dopaminergic neuron differentiation score” value (ReNCell VM [2]; library: Spectrum)?
**A.** inactive: 0

**Q.** What does the source list for `COc1cc([C@@H]2c3cc4c(cc3[C@@H](O[C@@H]3O[C@@H]5CO[C@@H](C)O[C@H]5[C@H](O)[C@H]3O)[C@H]3COC(=O)[C@H]23)OCO4)cc(OC)c1O`?
**A.** neuronal differentiation score (ReNCell VM [1]; library: Spectrum): inactive: 0; dopaminergic neuron differentiation score (ReNCell VM [2]; library: Spectrum): inactive: 0

**Q.** How did the neuronal differentiation score (ReNCell VM [1]; library: Spectrum) turn out when `C[C@H]1[C@H](NC(=O)/C(=N\OC(C)(C)C(=O)O)c2csc(N)n2)C(=O)N1S(=O)(=O)O` was run?
**A.** inactive: 0

**Q.** What about the “dopaminergic neuron differentiation score” value (ReNCell VM [2]; library: Spectrum) of the same molecule?
**A.** inactive: 0
